Results are given in words; binding and its absence hold for the method and conditions named. In cells and extracts the contact can be indirect. Some entries that bind do so weakly or less than the wild type.
Columns and labels:
[1] = target: HA-tagged AKAP11 4ALIR mutant (WSNL>AAAA) (human) (UniProt Q9UKA4); assay: co-IP
[2] = target: HA-tagged AKAP11, wild type (human) (UniProt Q9UKA4); assay: co-IP

The chains behind the UniProt entries cited, without tags or fusion partners. Where a name states a change or a piece, a line headed by the entry shows the natural chain unless it says otherwise.
UniProt Q9UKA4, whole entry: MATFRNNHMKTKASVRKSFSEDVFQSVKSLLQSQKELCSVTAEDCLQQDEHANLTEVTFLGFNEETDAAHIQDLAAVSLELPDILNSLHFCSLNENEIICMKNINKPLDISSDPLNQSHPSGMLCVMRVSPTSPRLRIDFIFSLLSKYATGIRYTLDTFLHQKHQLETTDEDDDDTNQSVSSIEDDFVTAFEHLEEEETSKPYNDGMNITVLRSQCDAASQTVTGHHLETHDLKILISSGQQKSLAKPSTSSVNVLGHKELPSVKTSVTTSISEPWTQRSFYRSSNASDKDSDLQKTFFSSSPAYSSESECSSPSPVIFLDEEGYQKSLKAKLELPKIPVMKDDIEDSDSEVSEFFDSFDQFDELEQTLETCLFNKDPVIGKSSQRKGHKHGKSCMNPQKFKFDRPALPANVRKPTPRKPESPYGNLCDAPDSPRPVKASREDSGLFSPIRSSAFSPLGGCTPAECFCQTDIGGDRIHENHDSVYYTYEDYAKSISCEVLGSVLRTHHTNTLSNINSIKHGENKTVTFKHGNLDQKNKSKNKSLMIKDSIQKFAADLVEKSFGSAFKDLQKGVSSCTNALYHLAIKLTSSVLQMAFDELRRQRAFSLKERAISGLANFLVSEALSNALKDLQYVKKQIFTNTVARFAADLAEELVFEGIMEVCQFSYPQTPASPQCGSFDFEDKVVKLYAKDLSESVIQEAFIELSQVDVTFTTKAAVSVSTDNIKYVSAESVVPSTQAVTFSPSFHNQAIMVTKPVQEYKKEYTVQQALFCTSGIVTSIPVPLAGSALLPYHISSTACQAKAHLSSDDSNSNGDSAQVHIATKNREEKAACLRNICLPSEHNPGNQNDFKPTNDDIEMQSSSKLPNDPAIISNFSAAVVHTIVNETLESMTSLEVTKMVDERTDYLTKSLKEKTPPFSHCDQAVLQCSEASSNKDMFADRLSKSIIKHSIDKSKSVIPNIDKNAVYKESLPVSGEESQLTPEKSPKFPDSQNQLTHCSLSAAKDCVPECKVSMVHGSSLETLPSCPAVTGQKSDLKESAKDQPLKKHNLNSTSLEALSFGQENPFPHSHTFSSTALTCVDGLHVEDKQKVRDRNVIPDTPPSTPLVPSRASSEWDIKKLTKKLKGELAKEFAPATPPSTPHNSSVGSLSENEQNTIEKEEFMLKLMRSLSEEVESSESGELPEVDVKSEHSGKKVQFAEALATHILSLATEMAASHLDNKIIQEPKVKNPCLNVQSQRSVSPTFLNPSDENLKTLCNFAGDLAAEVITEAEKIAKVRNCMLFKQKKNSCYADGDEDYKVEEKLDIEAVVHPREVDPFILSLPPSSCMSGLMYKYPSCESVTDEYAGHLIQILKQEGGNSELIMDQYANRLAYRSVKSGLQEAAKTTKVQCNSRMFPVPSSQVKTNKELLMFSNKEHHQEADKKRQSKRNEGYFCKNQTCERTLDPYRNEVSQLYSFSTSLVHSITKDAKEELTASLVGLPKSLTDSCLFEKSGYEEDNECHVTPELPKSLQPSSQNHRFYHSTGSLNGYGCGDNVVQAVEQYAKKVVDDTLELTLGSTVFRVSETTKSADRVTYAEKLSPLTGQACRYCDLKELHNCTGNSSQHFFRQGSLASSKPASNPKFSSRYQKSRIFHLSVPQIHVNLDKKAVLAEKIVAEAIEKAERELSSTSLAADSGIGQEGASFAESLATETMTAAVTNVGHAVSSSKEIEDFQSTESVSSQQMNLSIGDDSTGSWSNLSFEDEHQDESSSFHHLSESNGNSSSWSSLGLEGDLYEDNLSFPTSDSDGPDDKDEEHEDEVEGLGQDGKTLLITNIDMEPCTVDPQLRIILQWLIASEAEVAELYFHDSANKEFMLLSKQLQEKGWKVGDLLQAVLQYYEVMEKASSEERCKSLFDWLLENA
UniProt P10644, whole entry: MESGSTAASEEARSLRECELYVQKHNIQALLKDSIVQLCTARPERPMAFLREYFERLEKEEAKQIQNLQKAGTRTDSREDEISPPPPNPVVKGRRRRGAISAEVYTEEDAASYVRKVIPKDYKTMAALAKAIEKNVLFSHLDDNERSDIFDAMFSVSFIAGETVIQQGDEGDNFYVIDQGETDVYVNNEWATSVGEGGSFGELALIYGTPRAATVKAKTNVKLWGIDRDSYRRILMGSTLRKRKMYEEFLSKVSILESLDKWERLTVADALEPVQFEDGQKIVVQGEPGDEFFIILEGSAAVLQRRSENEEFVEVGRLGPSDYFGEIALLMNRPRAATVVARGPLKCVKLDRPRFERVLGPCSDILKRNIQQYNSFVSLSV

Substance: PKA regulatory subunit RIα, endogenous (from UniProt P10644 1-381)
- binding [1]: binds
- binding [2]: binds
